Measurements from patent US8871741B2, “Inhibition of TNF-α induced activation of NFKB by pentosan polysulfate” (Icahn School of Medicine at Mount Sinai, priority 2010, dated 2014).

Tested on: 22 month-old diabetic C57B6 mice
Experiment: Diabetic nephropathy in aged streptozotocin-diabetic C57B6 mice (albuminuria, renal histology, morphometry, serum chemistry)
Type: in vivo, mouse
Conditions: 22 month-old diabetic mice treated with PPS, n = 10; mean±SD
Method: 4 and 16-17 month-old female C57B6 mice were obtained from National Institute on Aging and were injected with streptozotocin to induce diabetes. Mice were given 50 μg/g of streptozotocin in every three days, for a total of 5-8 injections. A total of 250-400 μg/g of streptozotocin was sufficient in most of mice to induce stable hyperglycemia (≧250 mg/dL). The streptozotocin dose required to establish stable diabetes was similar between […] and 4 month-old mice. There was less than 10% of mortality in both age groups of diabetic mice with this streptozotocin protocol. Dead mice were excluded from further study. Mice with stable diabetes at 5 or 18 months of age were selected for randomization. Female C57B6 mice were chosen as the onset and nature of renal lesions in aging was documented by the inventors herein These mice have irregular, lengthened estrous cycles around 10 to 14 months of age and the cycles usually cease at 18 months of age. […] 18 month-old diabetic mice were randomly divided into PPS treated (n=10, PPS 25 mg/kg/day in drinking water) and control (n=11) groups. No PPS treatment was given to 5 month-old diabetic mice. Both age groups of diabetic mice were followed for 4 months without insulin treatment. Body weight and blood glucose levels were monitored weekly. Urine albumin excretion was measured bi-weekly using an ELISA kit (Bethyl Laboratory Inc, Houston, Tex., USA), as previously described (Zheng F, et al. Am J Pathol 2003, 162:1339-1348). Urine creatinine levels were measured in the same samples and the urine albumin excretion rate was expressed as the ratio of albumin to creatinine Blood urea nitrogen (BUN) levels and serum creatinine levels were examined at sacrifice. […]
Mice were sacrificed 4 months after stable hyperglycemia was established. […] The glomerular volume and mesangial area were determined by examining plastic embedded sections using a digitizing tablet and video camera. The relative mesangial area was expressed as mesangial/glomerular surface area. Glomerular cell number was determined by counting the nuclear number in at least 30 glomeruli of each section. The glomerular basement membrane thickness was measured by the orthogonal intercept method on electron microscopic images. To determine the number of glomerular fenestrae, the length of was fenestrated or unfenestrated glomerular capillary endothelial cytoplasm was measured. […] Tubulointerstitial lesions were scored from 0 to 4 (0, no changes; 1+, changes affecting <25% of the sample; 2+, changes affecting 25 to 50% of the sample; 3+, changes affecting 50 to 75% of the sample; 4+, changes affecting 75 to 100% of the sample) based on tubular atrophy, increase in the thickness of basement membranes and interstitial area, and clusters of inflammatory cells.

pentosan polysulfate [PPS] showed a Body weight of 24.1 ± 1.3 g, a Glucose of 332 ± 68 mg/dL and a Heart weight of 170 ± 14 mg. It also gave a Kidney weight of 221 ± 23 mg.
